Measured values as given in PubChem BioAssay AID493014 (National Center for Advancing Translational Sciences (NCATS), 2011).
The other results are listed elsewhere or left out. The main result of the screen is listed elsewhere. These columns were measured beside it and carry no call. The list favours compounds with an active or inconclusive main result. Potencies come from curve fits of mixed quality, noted in brackets.

Experiment: qHTS Assay to Find Inhibitors of Chronic Active B-Cell Receptor Signaling
Conditions: ABC-DLBCL IkBa-CBG/CBR reporter, luminescence ratio (green luciferase fused to IkBa over red control in TMD8 lymphoma cells), 4 h
In short: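 TMD8 human ABC-DLBCL cells with doxycycline-inducible IκBα–green luciferase fusion and unfused red luciferase, in 0.5% FBS medium; compounds up to 46 uM, 4 h at 37C. Green/red luminescence ratio, filter-overlap corrected, fitted to concentration-response curves.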

[1] = measured here: CBR red luminescence, cell number

Structure (SMILES)	AC50 [1]	AC50 (measured here: IkBa-CBG green luminescence)
O=C(c1ccc(C(=O)N2CCCCCC2)cc1)N1CCCCCC1	0.0651 µM [falling, full curve, poor fit]	–
O=C(CCCOc1ccc(Cl)cc1Cl)Nc1ccccn1	3.98 µM [rising, full curve, poor fit]	–
CC(C)c1ccccc1NC(=O)COc1ccc(C(=O)NCCc2ccccc2)cc1	1.16 µM [rising, full curve]	–
O=C(O)CCCN1C(=O)/C(=C\c2ccc(-c3nc4ccccc4s3)o2)SC1=S	11.2 µM [falling, partial curve, poor fit]	–
O=C(Nc1ccc(Br)cc1)Nc1ccccc1F	8.91 µM [falling, partial curve]	–
CCC1(c2ccccc2)NC(=O)N(CC(=O)Nc2cc(Cl)ccc2N2CCOCC2)C1=O (stereo not drawn)	18.4 µM [falling, single point]	–
CSc1nc(SCCN(C)C)c2c3c(sc2n1)COC(C)(C)C3	3.16 µM [rising, single point]	–
NC(=O)c1ccsc1NC(=O)c1nc(-c2ccccc2)n(-c2ccccc2)n1	25.1 µM [falling, single point]	–
Cc1cc(C(=O)OCC(=O)N2CCCC2)c2ccccc2n1	0.82 µM [rising, partial curve, poor fit]	–
N#Cc1c(Nc2ccccc2C(F)(F)F)s[nH]c1=O	25.1 µM [falling, single point]	–
O=C1O[C@@H](c2ccc(O)cc2)Cc2cccc(O)c21	18.4 µM [rising, partial curve]	–
O=C(N/N=C/c1c[nH]c2ccccc12)C1CC1(c1ccccc1)c1ccccc1 (stereo not drawn)	13 µM [falling, partial curve]	25.9 µM [rising, partial curve, poor fit]
Cc1cccnc1NC(=O)C1CCCN(S(=O)(=O)c2ccc3c(c2)oc(=O)n3C)C1 (stereo not drawn)	32.6 µM [rising, single point]	–
COc1cccc(N2CCN(C(=O)CCCCCn3c(=O)[nH]c4ccccc4c3=O)CC2)c1	35.5 µM [falling, single point]	–
CN(C)S(=O)(=O)c1ccc(C(=O)Nc2ccc(F)cc2F)cc1	4.61 µM [rising, single point]	–
Cc1ccc(/C=N/NC(=O)c2cc3ccccc3cc2O)o1	3.55 µM [falling, full curve]	–
Cc1cccc(C(=O)N2CC(=O)Nc3ccc(F)cc3C2c2ccc(F)cc2)c1 (stereo not drawn)	6.31 µM [rising, single point]	–
CCCCOC(=O)Nc1sc2c(c1C(=O)OC)CCC2	6.31 µM [rising, full curve, poor fit]	–
CCOc1ccc(N(CC)C(=O)c2nn(-c3ccc(OC)cc3)c(=O)c3c2c2ccccc2n3C)cc1	0.398 µM [rising, full curve, poor fit]	–
COc1ccc(NC(=O)NS(=O)(=O)c2ccc(C)cc2)cc1OC	20.6 µM [rising, single point]	–
Cc1cccc(OCCOCCSc2ncccn2)c1	20.6 µM [rising, partial curve, poor fit]	–

Structure (SMILES)	AC50 [1]	AC50 (measured here: IkBa-CBG green luminescence)
Cc1[nH]c2ccccc2c1C(Nc1nccs1)c1ccncc1 (stereo not drawn)	29.1 µM [falling, single point]	–
CCCCOC(=O)c1ccc(-c2ccc(/C=N/NC(=S)NCC)o2)cc1	1.64 µM [falling, partial curve, poor fit]	–
Cc1nc2nc(SCc3ccccc3)[nH]n2c(=O)c1CCC(C)C	10 µM [falling, partial curve]	–
CCn1c(S(=O)(=O)O)nc2ccccc21	6.31 µM [falling, single point]	–
O=C(CSCc1ccc(Cl)cc1)c1ccco1	0.708 µM [rising, full curve, poor fit]	–
CCCNC(=O)Nc1nc2ccccc2s1	7.94 µM [falling, partial curve, poor fit]	–
COc1cc2c(cc1OC)C(C)N(C(=O)c1cc3c(C)cc(C)cc3[nH]1)CC2 (stereo not drawn)	35.5 µM [falling, single point]	–
CC(C)c1ccc(NC(=O)CN2C(=O)NC3(CCCC3)C2=O)cc1	14.1 µM [rising, single point]	–
Cc1cc(C)cc(NS(=O)(=O)Cc2ccccc2)c1	28.2 µM [rising, partial curve, poor fit]	–
O=C(CSc1nc2ccccc2c(=O)n1-c1ccccc1)NCc1ccco1	20 µM [falling, partial curve, poor fit]	–
COc1cc(OC)cc(C(=O)NCC(=O)OCC(=O)NCc2ccco2)c1	20.6 µM [rising, single point]	–
COc1ccc(CN(Cc2cccn2C)C(=O)c2cc3cc(OC)ccc3[nH]2)cc1	15.8 µM [falling, single point]	–
Fc1cccc(CSc2nc3ncccc3[nH]2)c1	6.31 µM [rising, single point]	–
Cc1ccc(C(=O)COC(=O)C2CC(=O)N(c3nc(-c4ccccc4)cs3)C2)cc1 (stereo not drawn)	0.00461 µM [rising, full curve, poor fit]	–
CCCC(=O)N(c1ccc(C(=O)O)cc1)c1nc(-c2ccccc2)c(C)s1	1.41 µM [falling, full curve]	–
C[C@H](CO)N1C[C@H](C)[C@@H](CN(C)C(=O)Nc2ccccc2)Oc2ccc(NC(=O)Nc3ccc4c(c3)OCO4)cc2C1=O	20.6 µM [rising, single point]	–
Cc1cc(C(=O)NCCc2ccccc2)ccc1[N+](=O)[O-]	13 µM [falling, partial curve, poor fit]	–
COc1ccc(C(=O)NCCN2C(=O)S/C(=C\c3cccnc3)C2=O)cc1[N+](=O)[O-]	5.62 µM [rising, single point]	–
CNC1(C(N)=O)CCNCC1	0.1 µM [rising, full curve, poor fit]	–
CC(=O)c1ccc(-n2c(C)ccc2-c2ccccc2)cc1	0.206 µM [falling, full curve, poor fit]	–
c1csc(CSc2nc3ccccc3s2)c1	2.24 µM [rising, full curve]	–

A draw from above in order of molar mass, rising:
Structure (SMILES)	AC50 [1]	AC50 (measured here: IkBa-CBG green luminescence)
CNC1(C(N)=O)CCNCC1	0.1 µM [rising, full curve, poor fit]	–
CCCNC(=O)Nc1nc2ccccc2s1	7.94 µM [falling, partial curve, poor fit]	–
CC(=O)c1ccc(-n2c(C)ccc2-c2ccccc2)cc1	0.206 µM [falling, full curve, poor fit]	–
Cc1cc(C(=O)NCCc2ccccc2)ccc1[N+](=O)[O-]	13 µM [falling, partial curve, poor fit]	–
Cc1[nH]c2ccccc2c1C(Nc1nccs1)c1ccncc1 (stereo not drawn)	29.1 µM [falling, single point]	–
Cc1nc2nc(SCc3ccccc3)[nH]n2c(=O)c1CCC(C)C	10 µM [falling, partial curve]	–
COc1ccc(CN(Cc2cccn2C)C(=O)c2cc3cc(OC)ccc3[nH]2)cc1	15.8 µM [falling, single point]	–
COc1ccc(C(=O)NCCN2C(=O)S/C(=C\c3cccnc3)C2=O)cc1[N+](=O)[O-]	5.62 µM [rising, single point]	–
